The results in this text go back to PMC10945694.

The target in the assay is RRM1 domain of SRSF1 (SRSF1-truncated protein). Put plainly: co-IP; FLAG-SRSF1 or truncated SRSF1 together with HA-tagged SART1, RBM15 or SRSF10 in 293T cells; lysate, protein A agarose, western blotting.

Results are given in words; binding and its absence hold for the method and conditions named. In cells and extracts the contact can be indirect. A result given as binding can be weak or reduced; the word gives no strength. Where a sequence is shown, tags or fusion partners need not be part of it.

B1: HA-SART1 (protein, UniProt Q9Z315 1-806)
chain: MGSSKKHRGEKEAAGTTAAAGTGGTTEQPPRHREHKKHKHRSSGGGSSGGERRKRSRERGSERGSGRRGAEAEARSGAHGRERSQAEPSERRVKREKRDDGYEAAASSKASSGDASSLSIEETNKLRAKLGLKPLEVNAVKKEAGTKEEPVAADVINPMALRQREELREKLAAAKEKRLLNQKLGKIKTLGEDDPWLDDTAAWIERSRQLQKEKDLAEKRAKLLEEMDQEFGVSTLVEEEFEQRRQDLYSARDLQGLTVEHAIDSFREGETVVLTLKDKGVLQDGEDVLVNVNMVDKERADKNVELRKKKPDYLPYAEDESVDDLAQQKPRSILAKYDEELEGERPHSFRLEQGGMADGLRERELEEIRTKLRLQAQSLSSVGPRLASEYLSPEEMVTFKKTKRRVKKIRKKEKEVIMRADDLLPLGDQTQDGDFGSRLRGRGRRRVPEVEEEALEDEEKDPVAQPPPSDDTRVENMDISDEEDGGALPPGSPEGLEEDEAELELQKQLEKGRRLRQLQQLQQLRDSGEKVLEIVKKLESRQRGWEEEEDPERKGTIVFNATSEFCRTLGEIPTYGLAGNREEQEELMDFERDEERSANGGSESDGEENIGWSTVNLDEEKQHQDFSASSTTILDEEPIVNRGLAAALLLCQNKGLLETTVQKVARVKAPNKSLPSAVYCIEDKMAIDDKYSRREEYRGFTQDFKEKDGYKPDVKIEYVDETGRKLTPKEAFRQLSHRFHGKGSGKMKTERRMKKLDEEALLKKMSSSDTPLGTVALLQEKQKAQKTPYIVLSGSGKSMNANTITK
Take B1: the binding entry is listed as “binds”.

B2: HA-RBM15 (protein, UniProt Q0VBL3 1-962)
chain: MRSAGREPLPRRSPRWRRASPLCETSAGWRVSQLRRDDLRRPSTMKGKERSPVKPKRSRGGEDSSSRGERSKKLGGSGGSNGSSSGKTDSGGSRRSLHLDKSSSRGGSREYETGGGSSSSRLHSYSSPSTKNSSGGGESRSSSRGGGGESRSSGAASSAPGGGDGVEYKTLKISELGSQLSDEAVEDGLFHEFKRFGDVSVKISHLSGSGSGDERVAFVNFRRPEDARAAKHARGRLVLYDRPLKIEAVYVSRRRSRSPLDKDAYAPSSSVVGTSVGSHRHAPGGGGGQRSLSPGGAALGYRDYRLQQLALGRLPPPPPPPLPRELERERDYPFYDRVRPAYSLEPRVGAGAGAAPFREVDEISPEDDQRANRTLFLGNLDITVTENDLRRAFDRFGVITEVDIKRPSRGQTSTYGFLKFENLDMSHRAKLAMSGKIIIRNPIKIGYGKATPTTRLWVGGLGPWVPLAALAREFDRFGTIRTIDYRKGDSWAYIQYESLDAAHAAWTHMRGFPLGGPDRRLRVDFADTEHRYQQQYLQPLPLTHYELVTDTFGHRAPDPLRSARDRTPPLLYRDRDRDLYTDSDWVPPPPPVRERSARAATSAVTAYEPLDSLDRRRDGWSLDRDRGDRDLPSSRDQPRKRRLPEESGGRHLDRSPESERPRKQRHCTPSPDRSPELSSNRDRYNSDNDRSSRLLLLERSSPVRDRRGSLEKSQSDKRDRKNSASAERDRKHRTAAPTEGKNPLKKEDRSDGNAPSASTSSSKQKPPSQKQDGGTAPVAASSPKLCLAWQGMLLLKNSNFPSNMHLLQGDLQVASSLLVEGSTGGKVAQLKITQRLRLDQPKLDEVTRRIKVAGPNGYAILLAVPGSSDSRSSSSSATSDTAASTQRPLRNLVSYLKQKQAAGVISLPVGGNKDKENTGVLHAFPPCEFSQQFLDSPAKALAKSEEDYLVMIIVRAKLVNSG
Regarding B2, the binding result is given as “binds”.
